# Assay results taken from patent US10143678B1, “Method of treatment of preventing hyperglycemia complications” (Sunway Biotech Co., LTD, priority 2015, dated 2018).
# “Also recorded” adds a separate entry of the source. For at least one compound, name, drawing or mass did not settle the structure.
# Experiments:
# Assay type in all cases: in vivo
# IL-1β = IL-1β expression in adipose tissue; conditions: FIG. 9, vs HFFD group, HFFD-fed SD rats, oral 10 weeks
# Description: (§1) The present invention provides a method of treatment of preventing hyperglycemia complications using at least one pharmaceutical made from a red mold product, wherein the red mold product is a red mold rice or a red mold Dioscorea, and the pharmaceutical is an extract obtained from the red mold product. The extract is Monascin, Ankaflavin, or a combination of Monascin and Ankaflavin. […] Moreover, in order to verify the practicability of the method of treatment of preventing hyperglycemia complications proposed by the present invention, a particularly-arranged of animal experiment is completed by inventors. After 1-week pre-feeding, several SD rats are divided into 9 experimental groups for carrying out 10-week animal experiment.
# (§2) Please refer to FIG. 8 and FIG. 9, where a statistical bar graph of IL-6 expression in adipose tissue and a statistical bar graph of IL-1β expression in adipose tissue are provided.
# [1] = test system: SD rats fed with high fat and fructose diet; experiment: Histomorphology of liver slices (fatty liver); conditions: FIG. 11, vs HFFD group, oral 10 weeks
# Description: as §1
# IL-6 = IL-6 expression in adipose tissue; conditions: FIG. 8, vs HFFD group, HFFD-fed SD rats, oral 10 weeks
# Description: as §1, §2
# GLUT-2 = GLUT-2 expression in adipose tissue; conditions: FIG. 6, vs HFFD group, HFFD-fed SD rats, oral 10 weeks
# Description: as §1
# TNF-α = TNF-α expression in adipose tissue; conditions: FIG. 5, vs HFFD group, HFFD-fed SD rats, oral 10 weeks
# Description: as §1
# [2] = test system: SD rats fed with high fat and fructose diet; experiment: Oral glucose tolerance test (OGTT), AUC of blood glucose; conditions: FIG. 2, vs HFFD group, oral 10 weeks
# Description: as §1
# [3] = test system: Reactive Oxygen Species (ROS); experiment: ROS concentration in liver; conditions: FIG. 4, vs HFFD group, HFFD-fed SD rats, oral 10 weeks
# Description: as §1
# HIF-1α = HIF-1α expression in adipose tissue; conditions: FIG. 10, vs HFFD group, HFFD-fed SD rats, oral 10 weeks
# Description: as §1
# GLUT-4 = GLUT-4 expression in adipose tissue; conditions: FIG. 7, vs HFFD group, HFFD-fed SD rats, oral 10 weeks
# Description: as §1
# adiponectin = experiment: Adiponectin expression in adipose tissue; conditions: FIG. 3, vs HFFD group, HFFD-fed SD rats, oral 10 weeks
# Description: as §1
# [4] = 1-fold dose mg/kg bw/day: MF 78.06, RMD 104.17, Monascin 0.31 (MS1X), Ankaflavin 0.16 (AK1X), MS-AK 0.31 + 0.16
# [5] = 5-fold dose mg/kg bw/day: Monascin 1.56 (MS5X), Ankaflavin 0.78 (AK5X)
Compound,percentage of IL-1β expression in adipose tissue (IL-1β; [4]),percentage of IL-1β expression in adipose tissue (IL-1β; [5]),"formation of fatty liver [1, 4]","formation of fatty liver [1, 5]",percentage of IL-6 expression in adipose tissue (IL-6; [4]),percentage of IL-6 expression in adipose tissue (IL-6; [5]),percentage of GLUT-2 expression in adipose tissue (GLUT-2; [4]),percentage of GLUT-2 expression in adipose tissue (GLUT-2; [5]),percentage of TNF-α expression in adipose tissue (TNF-α; [4]),percentage of TNF-α expression in adipose tissue (TNF-α; [5]),"AUC (area under curve) of blood glucose [2, 4]","AUC (area under curve) of blood glucose [2, 5]","ROS level in liver [3, 4]","ROS level in liver [3, 5]",percentage of HIF-1α expression in adipose tissue (HIF-1α; [4]),percentage of HIF-1α expression in adipose tissue (HIF-1α; [5]),percentage of GLUT-4 expression in adipose tissue (GLUT-4; [4]),percentage of GLUT-4 expression in adipose tissue (GLUT-4; [5]),percentage of adiponectin expression in adipose tissue (adiponectin; [4]),percentage of adiponectin expression in adipose tissue (adiponectin; [5])
C/C=C/C1=CC2=C(CO1)C(=O)[C@]1(C)OC(=O)[C@H](C(=O)CCCCCCC)[C@H]1C2 [Ankaflavin],largely lowered,largely lowered,alleviated or solved,alleviated or solved,largely lowered,largely lowered,largely enhanced,largely enhanced,largely reduced,largely reduced,still lower,obviously lower; also recorded: better AUC reducing ability,largely lowered,largely lowered,largely lowered,largely lowered,largely enhanced,largely enhanced,largely enhanced,largely enhanced
C/C=C/C1=CC2=C(CO1)C(=O)[C@]1(C)OC(=O)[C@H](C(=O)CCCCC)[C@H]1C2 [Monascin],largely lowered,largely lowered,alleviated or solved,alleviated or solved,largely lowered,largely lowered,largely enhanced,largely enhanced,largely reduced,largely reduced,obviously lower,obviously lower,largely lowered,largely lowered,largely lowered,largely lowered,largely enhanced,largely enhanced,largely enhanced,largely enhanced
